No constants are given. Whether binding was seen depends on the method and setting. In cells and extracts the contact can be indirect. Some results given as binding are weak or reduced against the parent protein; the word gives no strength. One block for each molecule: values may come before it.
Assays:
PPARα [1] = target: T1, PPARα (UniProt Q07869); assay: split reporter; BiFC in HEK293T cells transfected with pBiFC-VN173 and pBiFC-VC155 fusions, imaged after 24 h (LSM780), DAPI for the nucleus; in some panels 10 μM rosiglitazone or GW9662 for 16 h or 25 mM D-mannose
T1 sequence: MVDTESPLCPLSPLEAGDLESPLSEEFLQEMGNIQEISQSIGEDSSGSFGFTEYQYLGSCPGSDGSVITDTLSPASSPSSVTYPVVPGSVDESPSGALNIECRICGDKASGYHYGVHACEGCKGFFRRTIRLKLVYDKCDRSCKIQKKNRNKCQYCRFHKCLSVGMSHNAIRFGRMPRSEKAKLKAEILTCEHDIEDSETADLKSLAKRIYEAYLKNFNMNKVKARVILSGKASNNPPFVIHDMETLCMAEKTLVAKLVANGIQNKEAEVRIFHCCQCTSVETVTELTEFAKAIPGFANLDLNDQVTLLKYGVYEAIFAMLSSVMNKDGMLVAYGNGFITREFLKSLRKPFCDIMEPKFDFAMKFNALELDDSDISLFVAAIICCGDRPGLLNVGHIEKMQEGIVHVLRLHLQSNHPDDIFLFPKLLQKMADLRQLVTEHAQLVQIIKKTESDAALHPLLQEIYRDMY

Amino acid sequences for entries named in this document (tags omitted).
UniProt Q03181: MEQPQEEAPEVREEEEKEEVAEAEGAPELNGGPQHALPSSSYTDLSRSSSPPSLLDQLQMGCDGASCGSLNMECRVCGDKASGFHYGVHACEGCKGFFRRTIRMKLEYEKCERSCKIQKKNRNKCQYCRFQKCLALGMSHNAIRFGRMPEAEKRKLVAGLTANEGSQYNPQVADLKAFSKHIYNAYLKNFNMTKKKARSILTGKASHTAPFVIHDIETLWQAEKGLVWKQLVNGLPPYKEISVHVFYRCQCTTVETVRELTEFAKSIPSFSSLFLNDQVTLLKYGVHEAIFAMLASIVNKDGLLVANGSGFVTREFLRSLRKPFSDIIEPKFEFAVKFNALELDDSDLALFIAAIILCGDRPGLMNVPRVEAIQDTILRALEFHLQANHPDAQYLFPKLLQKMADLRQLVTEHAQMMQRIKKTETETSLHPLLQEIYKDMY
UniProt P17676: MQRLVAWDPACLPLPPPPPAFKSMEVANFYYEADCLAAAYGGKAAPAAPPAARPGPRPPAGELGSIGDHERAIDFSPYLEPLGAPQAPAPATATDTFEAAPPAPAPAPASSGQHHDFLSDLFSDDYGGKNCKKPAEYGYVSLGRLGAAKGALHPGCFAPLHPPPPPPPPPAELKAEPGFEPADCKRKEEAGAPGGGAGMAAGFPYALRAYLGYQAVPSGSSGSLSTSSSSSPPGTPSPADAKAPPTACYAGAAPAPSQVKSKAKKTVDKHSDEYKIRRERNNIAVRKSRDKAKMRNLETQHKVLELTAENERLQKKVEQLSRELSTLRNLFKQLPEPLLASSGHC
UniProt P16220: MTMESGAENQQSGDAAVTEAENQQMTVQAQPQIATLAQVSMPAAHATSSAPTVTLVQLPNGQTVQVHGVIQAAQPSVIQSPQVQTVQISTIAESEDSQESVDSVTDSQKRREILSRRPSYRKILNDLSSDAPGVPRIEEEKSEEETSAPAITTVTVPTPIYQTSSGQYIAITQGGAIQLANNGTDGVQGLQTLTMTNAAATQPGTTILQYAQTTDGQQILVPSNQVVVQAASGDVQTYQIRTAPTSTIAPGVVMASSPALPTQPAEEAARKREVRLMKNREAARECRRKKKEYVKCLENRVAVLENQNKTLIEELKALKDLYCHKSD
UniProt P19793: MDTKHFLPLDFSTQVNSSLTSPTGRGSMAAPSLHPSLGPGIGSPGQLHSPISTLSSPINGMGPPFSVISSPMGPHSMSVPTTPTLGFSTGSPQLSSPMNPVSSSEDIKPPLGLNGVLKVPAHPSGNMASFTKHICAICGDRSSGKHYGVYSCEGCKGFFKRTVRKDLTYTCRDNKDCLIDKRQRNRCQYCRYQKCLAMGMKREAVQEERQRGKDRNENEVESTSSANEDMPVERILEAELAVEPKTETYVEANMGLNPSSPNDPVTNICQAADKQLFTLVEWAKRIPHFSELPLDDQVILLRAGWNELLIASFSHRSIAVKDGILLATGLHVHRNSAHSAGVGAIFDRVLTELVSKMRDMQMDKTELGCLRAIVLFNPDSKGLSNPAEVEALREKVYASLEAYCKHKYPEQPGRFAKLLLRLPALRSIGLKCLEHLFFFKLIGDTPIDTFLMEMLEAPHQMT
UniProt Q96EB6: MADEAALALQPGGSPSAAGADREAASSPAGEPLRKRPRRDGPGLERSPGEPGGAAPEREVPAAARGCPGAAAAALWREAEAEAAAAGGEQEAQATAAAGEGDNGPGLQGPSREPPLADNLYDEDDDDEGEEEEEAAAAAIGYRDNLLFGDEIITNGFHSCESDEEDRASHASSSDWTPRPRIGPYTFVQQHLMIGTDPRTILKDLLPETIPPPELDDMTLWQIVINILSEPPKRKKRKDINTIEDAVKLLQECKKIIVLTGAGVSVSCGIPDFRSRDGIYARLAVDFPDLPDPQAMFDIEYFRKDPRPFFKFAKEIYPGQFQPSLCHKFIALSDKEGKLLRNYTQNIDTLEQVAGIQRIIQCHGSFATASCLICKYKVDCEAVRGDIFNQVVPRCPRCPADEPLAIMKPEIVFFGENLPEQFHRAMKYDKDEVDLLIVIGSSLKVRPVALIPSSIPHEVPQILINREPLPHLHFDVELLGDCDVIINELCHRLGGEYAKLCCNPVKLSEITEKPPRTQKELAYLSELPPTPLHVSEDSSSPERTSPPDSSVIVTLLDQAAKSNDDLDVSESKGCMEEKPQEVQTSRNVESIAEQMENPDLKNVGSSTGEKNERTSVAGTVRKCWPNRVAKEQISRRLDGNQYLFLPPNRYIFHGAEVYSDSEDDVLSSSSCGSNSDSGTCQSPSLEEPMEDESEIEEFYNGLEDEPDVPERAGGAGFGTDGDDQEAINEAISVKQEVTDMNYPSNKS
UniProt P37238: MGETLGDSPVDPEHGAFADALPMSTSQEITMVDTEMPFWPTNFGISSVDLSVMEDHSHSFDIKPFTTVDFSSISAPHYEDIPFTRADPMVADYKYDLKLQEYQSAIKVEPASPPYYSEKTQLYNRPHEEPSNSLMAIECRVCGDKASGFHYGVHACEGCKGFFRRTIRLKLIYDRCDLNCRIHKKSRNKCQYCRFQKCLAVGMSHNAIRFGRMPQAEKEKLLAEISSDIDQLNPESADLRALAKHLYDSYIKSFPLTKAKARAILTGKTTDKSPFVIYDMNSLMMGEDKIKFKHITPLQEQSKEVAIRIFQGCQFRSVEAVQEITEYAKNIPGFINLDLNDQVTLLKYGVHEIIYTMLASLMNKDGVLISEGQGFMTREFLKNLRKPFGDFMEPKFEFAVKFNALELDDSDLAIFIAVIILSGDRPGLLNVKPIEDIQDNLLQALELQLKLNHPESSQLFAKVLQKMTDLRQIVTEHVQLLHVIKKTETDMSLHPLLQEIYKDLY
UniProt Q9QXG4: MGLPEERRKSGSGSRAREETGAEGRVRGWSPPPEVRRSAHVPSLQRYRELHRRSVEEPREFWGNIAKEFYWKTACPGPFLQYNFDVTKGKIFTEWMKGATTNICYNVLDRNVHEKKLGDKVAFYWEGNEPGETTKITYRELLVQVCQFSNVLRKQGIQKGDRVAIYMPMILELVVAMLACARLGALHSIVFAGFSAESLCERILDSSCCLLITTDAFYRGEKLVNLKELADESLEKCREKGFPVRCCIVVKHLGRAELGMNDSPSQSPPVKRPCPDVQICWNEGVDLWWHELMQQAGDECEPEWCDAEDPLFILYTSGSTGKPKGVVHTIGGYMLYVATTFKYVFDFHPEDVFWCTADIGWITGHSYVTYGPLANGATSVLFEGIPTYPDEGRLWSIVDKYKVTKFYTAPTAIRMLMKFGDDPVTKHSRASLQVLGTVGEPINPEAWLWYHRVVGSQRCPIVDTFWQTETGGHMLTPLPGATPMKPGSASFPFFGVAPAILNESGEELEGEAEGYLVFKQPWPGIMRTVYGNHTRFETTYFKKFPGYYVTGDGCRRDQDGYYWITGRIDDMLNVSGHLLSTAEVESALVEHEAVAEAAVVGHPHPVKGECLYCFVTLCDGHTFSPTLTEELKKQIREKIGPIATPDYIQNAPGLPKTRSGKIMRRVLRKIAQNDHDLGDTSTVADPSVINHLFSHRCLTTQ
UniProt Q60974: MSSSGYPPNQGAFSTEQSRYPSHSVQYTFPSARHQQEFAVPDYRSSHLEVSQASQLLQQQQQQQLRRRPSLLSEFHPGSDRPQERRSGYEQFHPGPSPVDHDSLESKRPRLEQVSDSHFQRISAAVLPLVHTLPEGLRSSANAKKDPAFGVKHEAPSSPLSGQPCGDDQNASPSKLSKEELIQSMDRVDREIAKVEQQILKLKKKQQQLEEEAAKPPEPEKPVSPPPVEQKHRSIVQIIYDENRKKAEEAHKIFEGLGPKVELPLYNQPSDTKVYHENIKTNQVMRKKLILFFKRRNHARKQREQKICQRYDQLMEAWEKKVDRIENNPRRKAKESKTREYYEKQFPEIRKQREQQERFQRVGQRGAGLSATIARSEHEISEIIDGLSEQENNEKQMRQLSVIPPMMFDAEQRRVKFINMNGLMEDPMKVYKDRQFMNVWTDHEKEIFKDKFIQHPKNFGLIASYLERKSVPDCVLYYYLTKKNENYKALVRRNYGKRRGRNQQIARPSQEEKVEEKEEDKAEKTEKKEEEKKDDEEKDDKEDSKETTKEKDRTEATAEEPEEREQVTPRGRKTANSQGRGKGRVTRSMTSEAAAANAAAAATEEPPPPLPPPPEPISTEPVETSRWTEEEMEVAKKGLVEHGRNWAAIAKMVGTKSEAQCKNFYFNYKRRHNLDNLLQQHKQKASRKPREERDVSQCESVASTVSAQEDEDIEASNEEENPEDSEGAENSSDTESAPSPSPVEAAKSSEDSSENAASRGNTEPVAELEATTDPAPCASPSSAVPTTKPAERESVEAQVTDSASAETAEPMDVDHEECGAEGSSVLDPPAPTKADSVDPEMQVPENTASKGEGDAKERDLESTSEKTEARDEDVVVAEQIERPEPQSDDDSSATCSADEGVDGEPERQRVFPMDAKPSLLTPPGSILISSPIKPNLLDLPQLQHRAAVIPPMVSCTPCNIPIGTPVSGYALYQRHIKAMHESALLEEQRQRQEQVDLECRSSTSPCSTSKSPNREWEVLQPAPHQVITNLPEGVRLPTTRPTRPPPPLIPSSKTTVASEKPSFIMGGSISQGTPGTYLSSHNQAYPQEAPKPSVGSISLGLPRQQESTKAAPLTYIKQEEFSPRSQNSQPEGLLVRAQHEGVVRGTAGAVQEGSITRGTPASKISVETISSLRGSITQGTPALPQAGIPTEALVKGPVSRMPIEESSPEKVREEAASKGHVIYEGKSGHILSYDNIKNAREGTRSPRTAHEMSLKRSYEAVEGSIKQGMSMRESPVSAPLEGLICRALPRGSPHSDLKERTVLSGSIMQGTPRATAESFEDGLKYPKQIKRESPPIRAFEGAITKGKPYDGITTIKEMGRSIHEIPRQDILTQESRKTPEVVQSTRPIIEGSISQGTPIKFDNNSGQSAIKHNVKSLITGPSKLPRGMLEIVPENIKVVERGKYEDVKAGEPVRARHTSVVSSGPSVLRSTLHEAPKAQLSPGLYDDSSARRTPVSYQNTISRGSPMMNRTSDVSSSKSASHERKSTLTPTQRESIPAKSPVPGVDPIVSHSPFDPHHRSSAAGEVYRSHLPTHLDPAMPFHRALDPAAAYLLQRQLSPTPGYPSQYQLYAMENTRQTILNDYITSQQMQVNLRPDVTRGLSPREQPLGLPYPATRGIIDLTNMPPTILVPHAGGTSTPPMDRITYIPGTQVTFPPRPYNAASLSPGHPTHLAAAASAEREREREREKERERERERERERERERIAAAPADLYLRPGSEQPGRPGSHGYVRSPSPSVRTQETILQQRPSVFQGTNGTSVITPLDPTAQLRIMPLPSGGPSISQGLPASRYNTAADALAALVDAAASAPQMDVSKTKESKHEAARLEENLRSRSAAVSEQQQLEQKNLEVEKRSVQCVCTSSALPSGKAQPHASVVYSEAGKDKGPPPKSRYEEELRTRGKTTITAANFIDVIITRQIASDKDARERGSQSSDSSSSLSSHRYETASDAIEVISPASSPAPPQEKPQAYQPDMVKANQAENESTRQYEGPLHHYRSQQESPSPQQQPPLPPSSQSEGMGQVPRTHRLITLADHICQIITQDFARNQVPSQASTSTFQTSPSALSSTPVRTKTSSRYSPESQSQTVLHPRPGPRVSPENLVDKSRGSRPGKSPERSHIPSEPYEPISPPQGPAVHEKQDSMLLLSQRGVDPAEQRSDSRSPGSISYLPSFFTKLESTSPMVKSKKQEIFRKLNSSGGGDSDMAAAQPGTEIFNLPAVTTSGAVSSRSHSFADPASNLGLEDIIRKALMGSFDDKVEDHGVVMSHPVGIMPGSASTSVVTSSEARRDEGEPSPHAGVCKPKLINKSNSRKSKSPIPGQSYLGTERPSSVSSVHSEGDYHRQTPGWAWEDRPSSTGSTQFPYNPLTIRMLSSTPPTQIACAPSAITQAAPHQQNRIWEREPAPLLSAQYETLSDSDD

PPARβ [2] = target: PPARβ (UniProt Q03181); assay: as above
CEBPβ = CEBPβ (UniProt P17676); assay: co-IP; exogenous IP from transfected HEK293T cells lysed in IP buffer; indicated antibodies overnight at 4 °C, protein A or G agarose beads 3 h, 5 washes, immunoblot; in some panels rosiglitazone or GW9662 (0-10 μM, 16 h), 25 mM D-mannose, or co-expressed P300, SIRT1, ACSS2 or PPARγ mutants
CREB = CREB (UniProt P16220); assay: as above
FLAG-tagged RXRα = FLAG-tagged RXRα (UniProt P19793); assay: as above
P300 = P300 (UniProt Q09472); assay: as above
PPARα [3] = target: T1, PPARα; assay: as above
PPARβ [4] = target: PPARβ (UniProt Q03181); assay: as above
SIRT1 = SIRT1 (UniProt Q96EB6); assay: as above
[5] = target: PPARγ, endogenous mouse (mouse (endogenous in BAT, ingWAT and beige adipocytes)) (UniProt P37238); assay: co-IP; endogenous IP from mouse BAT and ingWAT lysates in IP buffer; indicated antibodies overnight at 4 °C, protein A or G agarose beads 3 h, 5 washes, immunoblot
[6] = target: PPARγ, endogenous mouse (mouse (endogenous in BAT, ingWAT and beige adipocytes)) (UniProt P37238); assay: co-IP; IP of PPARγ from differentiated beige adipocytes of wild type or Acss2-/- mice, immunoblot

Molecule: acetyl-CoA synthetase short-chain family member 2 (ACSS2), endogenous mouse (from UniProt Q9QXG4 1-701)
binding [5]: binds

Molecule: NCoR1, endogenous mouse (from UniProt Q60974 1-2453)
binding [6]: binds

Continued, values first:

binding (PPARα [1]): binds | binding (PPARβ [2]): binds | binding (CEBPβ): no binding | binding (CREB): no binding | binding (FLAG-tagged RXRα): binds | binding (P300): binds | binding (PPARα [3]): binds | binding (PPARβ [4]): binds | binding (SIRT1): no binding
Molecule: FLAG-tagged full length human ACSS2 (VN173-Flag-ACSS2) (from UniProt Q9NR19-1 1-701)

binding [6]: binds
B1: Sin3A, endogenous mouse (protein, UniProt Q60520 1-1274)
chain: MKRRLDDQESPVYAAQQRRIPGSTEAFSHQHRVLAPAPPVYEAVSETMQSATGIQYSVAPNYQVSAVPQSSGSHGPAIAAVHSSHHHPTAVQPHGGQVVQSHAHPAPPVAPVQGQQQFQRLKVEDALSYLDQVKLQFGSQPQVYNDFLDIMKEFKSQSIDTPGVISRVSQLFKGHPDLIMGFNTFLPPGYKIEVQTNDMVNVTTPGQVHQIPTHGIQPQPQPPPQHPSQPSSQSAPTPAQPAPQPTAAKVSKPSQLQAHTPASQQTPPLPPYASPRSPPVQPHTPVTISLGTAPSLQNNQPVEFNHAINYVNKIKNRFQGQPDIYKAFLEILHTYQKEQRNAKEAGGNYTPALTEQEVYAQVARLFKNQEDLLSEFGQFLPDANSSVLLSKTTAEKVDSVRNDHGGTVKKPQLNNKPQRPSQNGCQIRRHSGTGATPPVKKKPKLMSLKESSMADASKHGVGTESLFFDKVRKALRSAEAYENFLRCLVIFNQEVISRAELVQLVSPFLGKFPELFNWFKNFLGYKESVHLESFPKERATEGIAMEIDYASCKRLGSSYRALPKSYQQPKCTGRTPLCKEVLNDTWVSFPSWSEDSTFVSSKKTQYEEHIYRCEDERFELDVVLETNLATIRVLEAIQKKLSRLSAEEQAKFRLDNTLGGTSEVIHRKALQRIYADKAADIIDGLRKNPSIAVPIVLKRLKMKEEEWREAQRGFNKVWREQNEKYYLKSLDHQGINFKQNDTKVLRSKSLLNEIESIYDERQEQATEENAGVPVGPHLSLAYEDKQILEDAAALIIHHVKRQTGIQKEDKYKIKQIMHHFIPDLLFAQRGDLSDVEEEEEEEMDVDEATGAPKKHNGVGGSPPKSKLLFSNTAAQKLRGMDEVYNLFYVNNNWYIFMRLHQILCLRLLRICSQAERQIEEENREREWEREVLGIKRDKSDSPAIQLRLKEPMDVDVEDYYPAFLDMVRSLLDGNIDSSQYEDSLREMFTIHAYIAFTMDKLIQSIVRQLQHIVSDEVCVQVTDLYLAENNNGATGGQLNSQTSRSLLESAYQRKAEQLMSDENCFKLMFIQSQGQVQLTVELLDTEEENSDDPVEAERWSDYVERYMSSDTTSPELREHLAQKPVFLPRNLRRIRKCQRGREQQEKEGKEGNSKKTMENVESLDKLECRFKLNSYKMVYVIKSEDYMYRRTALLRAHQSHERVSKRLHQRFQAWVDKWTKEHVPREMAAETSKWLMGEGLEGLVPCTTTCDTETLHFVSINKYRVKYGTVFKAP

— publication PMC11043345
